{
  "source": "patent US20220249475A1",
  "about": "“COMPOUNDS AND METHOD FOR TREATING CYTOKINE RELEASE SYNDROME” (Rigel Pharmaceuticals, Inc., priority 2019, published 2022)",
  "test_system": "Dendritic cells + T cells + CD3/CD28 beads",
  "assay": "CRS assay: dendritic cells + T cells + CD3/CD28 beads, IL6 ELISA",
  "assay_type": "cell-based",
  "details": "human PBMC-derived dendritic cells, 1 hour compound pre-incubation, overnight with T cells and CD3/CD28 beads; IL-6 primarily produced by the dendritic cells",
  "from_the_text": "Human PBMC cells (PPA Research Group, Cat No. 15-00021); RPMI media 10% FBS; GMCSF (Peprotech, Cat No. 300-03) and IL4 (Peprotech Cat No. 200-04); White clear bottom 96 well plates (Fisher, Cat No. 07-200-587, Corning #3903); Human IL-2 DuoSet ELISA (R&D Systems, Cat No. DY202); Human IL-6 DuoSet ELISA (R&D Systems, Cat No. DY206); Cell Titer Glo reagent (Promega, Cat No. G7573); Dynabeads Human T-Activator CD3/CD28 (Fisher, Cat No. 111.61D); Anti-human CD3 (BD Biosciences, Cat No. 555336); CD28, Clone CD28.2 (Beckman Coulter Inc. Cat No. IM1376); Recombinant Human IL-2 Protein (R&D Systems, Cat No. 202-IL-500).\nHuman peripheral blood mononuclear cells (PBMC) (400 million) obtained from the vendor were transferred into three T-175 flasks containing 16 ml RPMI media (10% fetal bovine serum (FBS)) and incubated for 2 hours at 37° C. After 2 hours, floating PBL was removed and the cell was rinsed twice with 10 ml of media. The PBL and media was saved for T cell expansion. 16 ml of fresh RPMI media (10% FBS) containing Granulocyte Macrophage Colony—Stimulating Factor (GMCSF) (100 ng/ml) and IL4 (20 ng/ml) was added and the flask was kept in a 37° C. incubator. […]\nAfter incubation, 80 μl of the supernatant was harvested from each well for IL6 ELISA and 80 μl of the supernatant for IL2 ELISA. […] The plate was read for luminescence intensity to determine the compound cytotoxicity.",
  "data": [
    {"smiles": "C[C@@H]1CCN(C(=O)CC#N)C[C@@H]1N(C)c1ncnc2[nH]ccc12", "note": "[Tofacitinib, reference compound]", "values": [
      {"measurement": "EC50", "value": 108, "unit": "nM"}
    ]}
  ]
}
